Values quoted from earlier work as cited in patent US9250232B2, “Fluorescent probe” (THE UNIVERSITY OF TOKYO, priority 2012, dated 2016).
For at least one compound, name, drawing or mass did not settle the structure.

Details: fluorescein in 0.1M aqueous sodium hydroxide; cited from earlier work

O=C1OC2(c3ccc(O)cc3Oc3cc(O)ccc32)c2ccccc21 [fluorescein]
Quantum yield (used as the standard): 0.85
